# Source: patent US20120108624A1, “TREATMENT OF DYSKINESIA RELATED DISORDERS” (priority 2009, published 2012)
# Counter-ions that a name gives are not always drawn. For some assays here: At least one structure is not confirmed: it was looked up by name or label, or the drawing left a doubt. Some of these results come from one statement about several compounds together.
# Assays:
# [1] = system: rats with unilateral 6-OHDA lesions; assay: 6-OHDA rat model (rotation response); type: in vivo; details: rotation in unilateral 6-OHDA rats; MED and MED to overcome Nemonapride block
# Text: Dopamine agonists can have activity at either the D1 receptors, the D2 receptors, or both. The rotation response in rats with unilateral 6-OHDA lesions can be used to assess compounds for their ability to stimulate both receptor types and induce rotation (Ungerstedt and Arbuthnott, Brain Res., 1970, 24, 485; Setler, et al. Eur. J. Pharmacol., 1978, 50(4), 419; and Ungerstedt, et al. “Advances in Dopamine Research” (Kohsaka, Ed.), Pergamon Press, 1982, Oxford, p. 219). 6-OHDA (6-hydroxydopamine) is a neurotoxin used by neurobiologists to selectively kill dopaminergic neurons at the site of injection in the brain in experimental animals. In the 6-OHDA model, the nigrostraital dopamine cells are destroyed on one side of the brain (unilateral) by injecting 6-OHDA into the median forebrain bundle, located in front of the substantia nigra. This unilateral injection combined with stimulation by dopamine agonists such as apomorphine will induce rotation behaviour as only one side of the brain is stimulated. […] Once a MED has been determined, a second experiment is performed to determine the MED of the compound to overcome Nemonapride block (MEDNemonapride). […]
# Dopamine agonists can have activity at either the D1 receptors, the D2 receptors, or both. […] Once a MED has been determined, a second experiment is performed to determine the MED of the compound to overcome Nemonapride block (MEDNemonapride). […]
# MPTP treated marmosets = assay: Anti-Parkinsonian effects in MPTP-treated common marmosets; type: in vivo, common marmoset
# Experimental: (§1) The experiments were conducted using 6 MPTP treated marmosets (2.0 mg/kg daily for up to 5 consecutive days dissolved in sterile 0.9% saline solution). All the animals had previously been treated with L-DOPA (12.5 mg/kg p.o., plus carbidopa 12.5 mg/kg p.o.) administered daily for up to 30 days in order to induce dyskinesia. […] Domperidone was administered 60 min before any of the test compounds. Domperidone is an anti-dopaminergic drug that suppresses nausea and vomiting. Locomotor Activity was assessed using test cages that are comprised of 8 photo-electric switches comprised of 8 infra-red beams which are strategically placed in the cage and interruption of a beam is recorded as one count. […] The assessment of motor disability was performed by a trained observer blinded to the treatment.
# as §1, with “antidopaminergic” for “anti-dopaminergic”
# as §1, with “compounds.” for “compounds. Domperidone is an anti-dopaminergic drug that suppresses nausea and vomiting.”
Compound,D1/D2 ratio [1],duration of reversal of motor disability compared to L-DOPA (MPTP treated marmosets; dosed p.o.),efficacy compared to L-DOPA (MPTP treated marmosets; dosed p.o.),duration of reversal of motor disability compared to L-DOPA (MPTP treated marmosets; dosed subcutaneously),efficacy compared to L-DOPA (MPTP treated marmosets; dosed subcutaneously)
"CCCN1CCC[C@@H]2CC3=C(CCCC3=O)C[C@H]21 [Compound 12, (4aR,10aR)-1-n-propyl-2,3,4,4a,5,7,8,9,10,10a-decahydro-1H-benzo[g]quinolin-6-one]",2-4,–,–,–,–
"CCCN1CCC[C@@H]2Cc3c(ccc(O)c3O)C[C@H]21 [Compound 10, (4aR,10aR)-1-Propyl-1,2,3,4,4a,5,10,10a-octahydro-benzo[g]quinoline-6,7-diol hydrobromide]",–,prolonged reversal of motor disability,as efficacious as L-DOPA,prolonged reversal of motor disability,as efficacious as L-DOPA
